Experiment [1] addresses T1, fluorescein-labelled reduced carboxymethylated lactalbumine (fRCMLa) (UniProt P00711).
T1 sequence (chain, reduced carboxymethylated; labeled with fluorescein (site not stated)): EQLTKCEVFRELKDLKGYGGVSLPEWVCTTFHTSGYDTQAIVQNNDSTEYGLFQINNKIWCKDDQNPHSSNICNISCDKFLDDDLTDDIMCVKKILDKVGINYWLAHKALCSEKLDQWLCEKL
In words: fluorescence polarisation; fluorescence anisotropy; Ssa1 (2 uM) and Ydj1 (0.5 uM) injected together to fRCMLa (5 uM by the legend, 1 uM by the methods) at 2.6 mM ATP, 30 °C, renaturation buffer; both purified. In general terms: Polarisation of emitted light reports the rotation of a fluorescent probe.

Protein sequences, listed by entry. Tags and fused reporters are not part of them. Lines headed by an entry give the natural chain unless they say otherwise; changes in a name come on top.
UniProt P31539: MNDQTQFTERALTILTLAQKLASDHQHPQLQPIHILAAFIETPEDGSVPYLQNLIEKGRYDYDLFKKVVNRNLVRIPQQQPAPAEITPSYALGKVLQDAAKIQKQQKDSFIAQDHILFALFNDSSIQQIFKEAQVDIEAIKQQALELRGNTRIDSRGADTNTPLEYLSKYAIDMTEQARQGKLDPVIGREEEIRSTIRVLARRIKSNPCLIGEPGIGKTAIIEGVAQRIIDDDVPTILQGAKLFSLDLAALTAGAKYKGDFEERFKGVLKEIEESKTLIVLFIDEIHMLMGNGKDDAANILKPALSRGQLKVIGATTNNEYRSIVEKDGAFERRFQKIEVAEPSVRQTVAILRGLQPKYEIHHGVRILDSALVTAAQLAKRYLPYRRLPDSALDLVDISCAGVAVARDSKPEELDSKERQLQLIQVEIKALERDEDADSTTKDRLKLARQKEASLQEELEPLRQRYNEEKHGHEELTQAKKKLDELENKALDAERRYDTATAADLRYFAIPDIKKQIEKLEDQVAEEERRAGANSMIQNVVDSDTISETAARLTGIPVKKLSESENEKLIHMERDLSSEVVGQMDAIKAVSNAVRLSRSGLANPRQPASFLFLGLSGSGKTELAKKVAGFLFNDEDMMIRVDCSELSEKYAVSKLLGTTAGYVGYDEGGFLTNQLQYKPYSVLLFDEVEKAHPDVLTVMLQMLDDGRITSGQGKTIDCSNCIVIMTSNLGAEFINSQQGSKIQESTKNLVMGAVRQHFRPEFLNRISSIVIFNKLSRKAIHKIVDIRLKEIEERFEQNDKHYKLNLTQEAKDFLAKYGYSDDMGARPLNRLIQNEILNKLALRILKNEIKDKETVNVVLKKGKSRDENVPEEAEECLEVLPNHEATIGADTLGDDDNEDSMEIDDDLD
UniProt P10591: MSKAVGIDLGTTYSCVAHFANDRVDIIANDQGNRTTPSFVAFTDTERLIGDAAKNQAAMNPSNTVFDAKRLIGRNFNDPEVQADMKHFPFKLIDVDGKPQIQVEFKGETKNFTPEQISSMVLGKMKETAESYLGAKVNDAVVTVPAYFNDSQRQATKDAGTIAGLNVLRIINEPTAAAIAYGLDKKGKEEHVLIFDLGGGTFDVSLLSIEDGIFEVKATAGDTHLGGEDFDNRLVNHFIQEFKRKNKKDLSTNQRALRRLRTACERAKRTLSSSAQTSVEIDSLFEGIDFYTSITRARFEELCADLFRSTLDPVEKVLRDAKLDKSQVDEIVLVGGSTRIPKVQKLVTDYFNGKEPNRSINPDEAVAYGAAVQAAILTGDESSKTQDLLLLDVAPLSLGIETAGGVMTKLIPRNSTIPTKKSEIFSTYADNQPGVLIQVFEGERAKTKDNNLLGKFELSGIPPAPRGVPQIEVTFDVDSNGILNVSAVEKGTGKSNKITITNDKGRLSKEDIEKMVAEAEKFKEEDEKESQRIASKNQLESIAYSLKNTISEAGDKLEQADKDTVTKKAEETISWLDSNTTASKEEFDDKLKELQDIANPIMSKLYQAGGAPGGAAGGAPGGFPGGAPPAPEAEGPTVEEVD

The target in experiment [2] is T1, fluorescein-labelled reduced carboxymethylated lactalbumine (fRCMLa). In words: fluorescence polarisation; fluorescence anisotropy; Hsp104 E285Q (12 uM) injected to fRCMLa (1 uM) at 2.6 mM ATP without ADP, 30 °C, renaturation buffer (40 mM HEPES pH 7.5, 60 mM potassium glutamate, 15 mM magnesium acetate, 5 mM DTT); after 200 s non-labeled RCMLa added to 40 uM; both purified.

For experiment [3], the target named is Hsp104 E285Q (S. cerevisiae) (UniProt P31539). Described as above.

Results are given in words; binding and its absence hold for the method and conditions named. Some binding calls cover weakened binding; strength is not graded here.

On to “Hsp70 (Ssa1) (from UniProt P10591 1-642)”, for which the binding result in experiment [1] is on record as “binds”.
As for “Hsp104 E285Q (from UniProt P31539 1-908) (enzyme)”, the binding entry in experiment [2] is “binds”.

B1: reduced carboxymethylated lactalbumine (RCMLa), non-labelled (protein, UniProt P00711 20-142)
chain: EQLTKCEVFRELKDLKGYGGVSLPEWVCTTFHTSGYDTQAIVQNNDSTEYGLFQINNKIWCKDDQNPHSSNICNISCDKFLDDDLTDDIMCVKKILDKVGINYWLAHKALCSEKLDQWLCEKL
modifications: reduced carboxymethylated
Regarding B1, the binding entry in experiment [3] is listed as “binds”.

The values are drawn from publication PMC4927293.
